In patent publication US20150240311A1:
These are yes or no findings as the source states them, for the method shown. Binding seen in cells or lysates may run through a third protein. Some results given as binding are weak or reduced against the parent protein; the word gives no strength. Sequences can lack the tags named with a protein.

Experiments:
HA-EBF3 [1] = target: T1, HA-EBF3 (UniProt Q9H4W6); assay: co-immunoprecipitation, HA-EBF and FLAG-tagged fusion expressed in HEK293 cells
T1 sequence (looked up): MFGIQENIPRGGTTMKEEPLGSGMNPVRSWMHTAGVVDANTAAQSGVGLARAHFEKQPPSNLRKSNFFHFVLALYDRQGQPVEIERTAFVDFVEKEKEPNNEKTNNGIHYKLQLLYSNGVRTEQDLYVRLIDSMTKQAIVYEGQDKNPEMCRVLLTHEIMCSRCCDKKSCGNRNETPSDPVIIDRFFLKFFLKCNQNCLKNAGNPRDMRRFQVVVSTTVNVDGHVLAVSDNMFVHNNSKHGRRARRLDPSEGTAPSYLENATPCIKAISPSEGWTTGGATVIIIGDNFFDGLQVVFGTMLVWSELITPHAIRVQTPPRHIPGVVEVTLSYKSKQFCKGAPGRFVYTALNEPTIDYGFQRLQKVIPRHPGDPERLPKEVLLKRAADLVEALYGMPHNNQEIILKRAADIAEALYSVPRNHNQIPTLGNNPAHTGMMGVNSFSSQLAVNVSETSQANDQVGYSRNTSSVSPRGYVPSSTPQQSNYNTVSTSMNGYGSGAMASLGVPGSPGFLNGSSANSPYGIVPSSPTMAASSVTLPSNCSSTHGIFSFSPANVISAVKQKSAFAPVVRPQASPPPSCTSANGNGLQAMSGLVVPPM

HA-EBF3 [2] = target: T1, HA-EBF3; assay: co-immunoprecipitation and immunoblotting, HA-EBF and FLAG-tagged fusion expressed in HEK293 cells, 24 hour post-transfection

binding (HA-EBF3 [1]): binds | binding (HA-EBF3 [2]): binds
B1: FLAG-UBR5-ZNF423 fusion protein (protein, not shown: small tags and cut ends)
chain: MTEEGINHECKLCNQMFDSPAKLLCHLIEHSFEGMGGTFKCPVCFTVFVQANKLQQHIFAVHGQEDKIYDCSQCPQKFFFQTELQNHTMSQHAQ
